At least one compound was matched to its structure with a doubt left.
What was measured:
[1] = tested on: breast cancer cells (MCF-7); assay: Cell imaging with POSSFF as signal amplifier (CLSM); format: cell-based; conditions: POSSFF 0.1 μg/mL and EB 1 μM for 2 h; excitation of POSSFF at 405 nm or of EB itself at 488 nm
EB/dsDNA and EB/ssDNA = assay: FRET energy transfer from POSSFF to ethidium bromide/DNA (signal amplification); conditions: absence of POSSFF, direct excitation of EB at 475 nm

CC[n+]1c(-c2ccccc2)c2cc(N)ccc2c2ccc(N)cc21 [EB, ethidium bromide]
fluorescent image of MCF-7 cells (CLSM) [1]: dark
PL intensity of EB/dsDNA relative to free EB (EB/dsDNA and EB/ssDNA; dsDNA): 2.5 fold
PL intensity of EB/ssDNA relative to free EB (EB/dsDNA and EB/ssDNA; ssDNA): nearly the same as that of free EB

Reference: US8507290B2, “Water-soluble silsesquioxanes as organic quantum dots for sensing and imaging” (National University of Singapore, priority 2009, dated 2013)
